Laboratory results: PMC7862291, “Full-length in meso structure and mechanism of rat kynurenine 3-monooxygenase inhibition” (Communications Biology, 2021)
Results are given in words; binding and its absence hold for the method and conditions named. In cells and extracts the contact can be indirect. Some results given as binding are weak or reduced against the parent protein; the word gives no strength.

The chains behind the UniProt entries cited, without tags or fusion partners.
UniProt O15229: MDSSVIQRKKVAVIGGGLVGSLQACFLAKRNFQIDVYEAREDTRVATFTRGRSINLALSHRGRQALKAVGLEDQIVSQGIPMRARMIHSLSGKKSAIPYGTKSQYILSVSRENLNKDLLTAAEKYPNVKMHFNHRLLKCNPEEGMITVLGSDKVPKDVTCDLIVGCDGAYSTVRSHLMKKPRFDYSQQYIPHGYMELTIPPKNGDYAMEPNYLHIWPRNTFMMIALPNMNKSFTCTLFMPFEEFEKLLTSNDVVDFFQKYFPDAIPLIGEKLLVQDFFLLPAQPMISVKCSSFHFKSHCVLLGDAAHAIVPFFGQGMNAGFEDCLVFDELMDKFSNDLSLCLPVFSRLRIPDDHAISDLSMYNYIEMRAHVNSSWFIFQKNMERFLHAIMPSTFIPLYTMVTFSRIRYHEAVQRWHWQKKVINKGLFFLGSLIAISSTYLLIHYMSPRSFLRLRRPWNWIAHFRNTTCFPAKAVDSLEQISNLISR

Molecular target: wild type human KMO (Hs-KMO), NanoBRET constructs (human) (UniProt O15229)
Test: FRET or BRET; NanoBRET in HEK293T cells; HaloTag-KMO (NanoBRET 618 ligand) and NLuc-KMO co-transfected; donor 460 nm, acceptor 620 nm

Substance: wild type human KMO (Hs-KMO), NanoBRET constructs (from UniProt O15229 1-486) (enzyme)
- binding: binds
